Data as given in PubChem BioAssay AID652259 (Drosophila RNAi Screening Center, 2013).
In all, the deposit lists about 22,000 reagents; shown is a random part of those that have a named target and a result. Of all reagents, 233 (1.1%) are marked active. 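Light values are raw, unnormalised plate reads; the ratio scores behind the reporter calls were not deposited.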 A number with no mark means an inactive call. A plus sign joins genes that one reagent is predicted to hit. Not given: the amount of reagent, the time to read-out, the dose of the treatment.

Screen: 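Genome-wide hunt for genes that control Wingless pathway activity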 (primary screen)
Cell system: Drosophila clone 8 imaginal disc epithelial cells
Knock-down reagent: long dsRNA against Drosophila genes
Challenge: pathway stimulated by co-transfected Wingless expression plasmid
Read-out: 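Dual luciferase reads per well after Wingless plasmid stimulation: reporter firefly light and Renilla control light; activity is firefly divided by Renilla, a ratio not deposited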
Scale: firefly reporter light: higher = more Wg reporter light, before normalisation; Renilla control light: higher = more transfected or surviving cells
Active means: 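Strong candidates differ from their plate mean by at least two out of four per-plate statistical tests; weak candidates meet just one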
Calls: active = candidate regulator (raises or lowers reporter); inactive = not a candidate

| Target gene | amplicon | reporter change call, replicate 1 | firefly reporter light, replicate 1 | firefly reporter light, replicate 2 | Renilla control light, replicate 1 | Renilla control light, replicate 2 |
| --- | --- | --- | --- | --- | --- | --- |
| Cpn (GeneID 41474) | DRSC16613 | – | 6692 | – | 2676 | – |
| CG10841 (GeneID 41665) | DRSC14271 | – | 10556 | – | 4455 | – |
| CG14104 (GeneID 50259) | DRSC10106 | Wg reporter activity lowered | 15344 | – | 5536 | – |
| Pp1-13C (GeneID 48531) | DRSC20269 | – | 25921 | – | 10020 | – |
| Ada2b (GeneID 40966) | DRSC16531 | – | 23362 | – | 4308 | – |
| Root (GeneID 42860) | DRSC15972 | – | 12722 | – | 13729 | – |
| Alp8 (GeneID 37540) | DRSC04353 | – | 3915 | 11251 | 1160 | 4871 |
| Ilp8 (GeneID 39909) | DRSC10076 | – | 6082 | – | 2560 | – |
| CG6739 (GeneID 34037) | DRSC02987 | – | 2848 | 6133 | 455 | 2448 |
| sktl (GeneID 37356) | DRSC04715 | – | 7676 | – | 1853 | – |
| RpS25 (GeneID 41343) | DRSC16837 | – | 13064 | – | 3747 | – |
| Ir94e (GeneID 42765) | DRSC15229 | – | 21859 | – | 19760 | – |
| CR40441 (GeneID 10178882) | DRSC22916 | – | 4.80e5 | 5.63e5 | 1.92e5 | 1.78e5 |
| CG31975 + ovm | DRSC00323 | – | 2829 | 6252 | 1157 | 2690 |
| CG13311 (GeneID 39008) | DRSC09982 | – | 1529 | 5206 | 1138 | 1922 |
| CG32982 (GeneID 34237) | DRSC01059 | – | 13994 | – | 6720 | – |
| CG32982 (GeneID 34237) | DRSC02677 | – | 4614 | 6801 | 1424 | 4272 |
| CG32982 (GeneID 34237) | DRSC03268 | – | 3276 | 8819 | 1082 | 4448 |
| CG32982 (GeneID 34237) | DRSC03269 | – | 3053 | 5398 | 1185 | 2320 |
| CG32982 (GeneID 34237) | DRSC21912 | – | 4.23e5 | 4.73e5 | 1.65e5 | 1.79e5 |
| opa (GeneID 40605) | DRSC12384 | – | 20044 | – | 7397 | – |
| opa (GeneID 40605) | DRSC22563 | – | 5.85e5 | 6.70e5 | 1.32e5 | 1.07e5 |
| Acp53C14b (GeneID 36873) | DRSC06569 | – | 6208 | – | 2115 | – |
| puf (GeneID 42935) | DRSC15875 | Wg reporter activity raised (active) | 31161 | – | 6297 | – |
| Taf6 (GeneID 40134) | DRSC11299 | Wg reporter activity raised (active) | 19682 | – | 1463 | – |
| scu (GeneID 32789) | DRSC20369 | – | 17507 | – | 6787 | – |
| ppk29 (GeneID 37844) | DRSC04205 | – | 3254 | 9693 | 595 | 3303 |
| CG14331 (GeneID 42099) | DRSC14810 | – | 12972 | – | 2992 | – |
| CG8778 (GeneID 36392) | DRSC07264 | – | 4912 | – | 1537 | – |
| Klf15 (GeneID 31410) | DRSC17742 | – | 16928 | – | 7533 | – |
| Osi5 (GeneID 40759) | DRSC12276 | – | 19168 | – | 4640 | – |
| CG10031 (GeneID 33594) | DRSC00286 | – | 3425 | 10349 | 1000 | 2666 |
| CG3597 (GeneID 33420) | DRSC00617 | – | 2664 | 8118 | 916 | 2578 |
| CG15404 (GeneID 33537) | DRSC00418 | – | 2011 | 5719 | 758 | 2545 |
| lncRNA:CR31781 (GeneID 12798248) | DRSC02431 | – | 8198 | – | 3488 | – |
| lncRNA:CR31781 (GeneID 12798248) | DRSC02432 | – | 2804 | 4615 | 1298 | 3559 |
| CG13053 (GeneID 50274) | DRSC09934 | – | 5797 | – | 3056 | – |
| lncRNA:sphinx (GeneID 4379815) | DRSC17199 | – | 19188 | – | 12103 | – |
| CG10418 (GeneID 39408) | DRSC09720 | – | 9076 | – | 2508 | – |
| CG8128 (GeneID 32504) | DRSC20084 | – | 2661 | 6304 | 1288 | 3142 |

Entries above marked active, once more:
| Target gene | amplicon | reporter change call, replicate 1 | firefly reporter light, replicate 1 | firefly reporter light, replicate 2 | Renilla control light, replicate 1 | Renilla control light, replicate 2 |
| --- | --- | --- | --- | --- | --- | --- |
| puf (GeneID 42935) | DRSC15875 | Wg reporter activity raised (active) | 31161 | – | 6297 | – |
| Taf6 (GeneID 40134) | DRSC11299 | Wg reporter activity raised (active) | 19682 | – | 1463 | – |

The results go on:
| Target gene | amplicon | reporter change call, replicate 1 | firefly reporter light, replicate 1 | firefly reporter light, replicate 2 | Renilla control light, replicate 1 | Renilla control light, replicate 2 |
| --- | --- | --- | --- | --- | --- | --- |
| CG13449 (GeneID 39695) | DRSC09996 | – | 7872 | – | 3276 | – |
| CG12420 (GeneID 41249) | DRSC14514 | – | 20445 | – | 5992 | – |
| ppk24 (GeneID 43702) | DRSC15093 | – | 7208 | – | 2664 | – |
| CG31817 (GeneID 260659) | DRSC01537 | – | 13739 | – | 6915 | – |
| CG31817 (GeneID 260659) | DRSC01538 | – | 23930 | – | 12839 | – |
| CG31817 (GeneID 260659) | DRSC22476 | – | 3.34e5 | 3.38e5 | 1.17e5 | 46378 |
| tei (GeneID 36521) | DRSC07616 | – | 5173 | – | 1730 | – |
| stx (GeneID 32005) | DRSC18442 | – | 15824 | – | 2352 | – |
| stx (GeneID 32005) | DRSC18443 | – | 25564 | – | 9719 | – |
| CG10214 (GeneID 42811) | DRSC14213 | – | 3709 | 6912 | 1655 | 2000 |
| Socs44A (GeneID 35786) | DRSC06828 | – | 3804 | 7088 | 710 | 2603 |
| CG31832 (GeneID 318970) | DRSC22067 | – | 7.75e5 | 7.40e5 | 3.10e5 | 3.02e5 |
| Eig71Ea (GeneID 39700) | DRSC11148 | – | 8998 | – | 3808 | – |
| CG15615 (GeneID 36882) | DRSC06568 | – | 4681 | – | 2246 | – |
| CG4998 (GeneID 39808) | DRSC10466 | – | 6752 | – | 2441 | – |
| CG4998 (GeneID 39808) | DRSC22911 | – | 5.68e5 | 5.26e5 | 2.47e5 | 1.37e5 |
| ck (GeneID 34882) | DRSC03509 | – | 7691 | – | 1062 | – |
| RhoL (GeneID 41136) | DRSC16824 | – | 8948 | – | 3206 | – |
| abd-A (GeneID 42037) | DRSC13179 | – | 2356 | – | 777 | – |
| abd-A (GeneID 42037) | DRSC16897 | – | 8662 | – | 450 | – |
| Asap (GeneID 35783) | DRSC06493 | – | 3176 | 8727 | 618 | 3149 |
| Asap (GeneID 35783) | DRSC06830 | – | 6352 | – | 1498 | – |
| fal (GeneID 43927) | DRSC11087 | – | 4541 | – | 1860 | – |
| AttA (GeneID 36636) | DRSC05926 | – | 10450 | – | 4056 | – |
| Mal-B2 (GeneID 34598) | DRSC02417 | – | 4432 | – | 1312 | – |
| Tsp26A (GeneID 33838) | DRSC03135 | – | 3008 | 8016 | 940 | 2362 |
| CG3306 (GeneID 39116) | DRSC10357 | – | 2620 | – | 1173 | – |
| CG14062 (GeneID 43389) | DRSC14725 | – | 6712 | – | 2144 | – |
| Myo61F (GeneID 38153) | DRSC22144 | – | 3.42e5 | 4.18e5 | 1.75e5 | 1.83e5 |
| CG15042 (GeneID 32844) | DRSC19618 | – | 24980 | – | 9962 | – |
| SmB (GeneID 34426) | DRSC03437 | – | 11482 | – | 1690 | – |
| CG15356 (GeneID 33370) | DRSC00386 | – | 2648 | 6178 | 1008 | 1925 |
| Mps1 (GeneID 42126) | DRSC16273 | – | 3168 | 6985 | 1218 | 2112 |
